This is one part of the list.
What was measured:
Assay in all cases: log2 fold change, soluble protein after heating vs DMSO (PISA); higher = thermal stabilisation; K562 lysate, 10 uM; active = over 0.2 and 3.5 SD of the protein, either way, in both replicates (recomputed)
[1] = compound: O=C1NC(=O)C(c2cnc3ccccn23)=C1c1cn2c3c(cc(F)cc13)CN(C(=O)N1CCCCC1)CC2
Procedure, shortened: (§1)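 Log-two fold change in thermal stability relative to solvent controls is reported from duplicates. For each sample, crude K562 extract from dounce-homogenised pellets in PBS pH 7.4 with 1 mM MgCl2, at 1 mg/mL protein, was treated with 10 μM compound for 30 min. Aliquots heated for 3 min across 48°C-58°C were pooled, brought to 0.5% NP-40 at 4°C and cleared at 21,000xg for 90 min. The supernatant was quantified by TMTpro 16plex LC-MS/MS with channel sums equalised.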

The chains behind the UniProt entries cited, without tags or fusion partners. Where a name states a change or a piece, a line headed by the entry shows the natural chain unless it says otherwise.
UniProt Q96ET8: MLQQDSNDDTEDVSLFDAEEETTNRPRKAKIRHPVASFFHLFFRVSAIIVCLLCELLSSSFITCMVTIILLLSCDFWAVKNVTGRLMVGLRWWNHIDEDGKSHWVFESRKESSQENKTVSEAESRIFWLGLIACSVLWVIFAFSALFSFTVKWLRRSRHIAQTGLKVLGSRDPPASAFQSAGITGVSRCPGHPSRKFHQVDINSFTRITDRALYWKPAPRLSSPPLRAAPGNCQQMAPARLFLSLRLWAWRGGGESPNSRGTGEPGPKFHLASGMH
UniProt Q96RT8, whole entry, looked up: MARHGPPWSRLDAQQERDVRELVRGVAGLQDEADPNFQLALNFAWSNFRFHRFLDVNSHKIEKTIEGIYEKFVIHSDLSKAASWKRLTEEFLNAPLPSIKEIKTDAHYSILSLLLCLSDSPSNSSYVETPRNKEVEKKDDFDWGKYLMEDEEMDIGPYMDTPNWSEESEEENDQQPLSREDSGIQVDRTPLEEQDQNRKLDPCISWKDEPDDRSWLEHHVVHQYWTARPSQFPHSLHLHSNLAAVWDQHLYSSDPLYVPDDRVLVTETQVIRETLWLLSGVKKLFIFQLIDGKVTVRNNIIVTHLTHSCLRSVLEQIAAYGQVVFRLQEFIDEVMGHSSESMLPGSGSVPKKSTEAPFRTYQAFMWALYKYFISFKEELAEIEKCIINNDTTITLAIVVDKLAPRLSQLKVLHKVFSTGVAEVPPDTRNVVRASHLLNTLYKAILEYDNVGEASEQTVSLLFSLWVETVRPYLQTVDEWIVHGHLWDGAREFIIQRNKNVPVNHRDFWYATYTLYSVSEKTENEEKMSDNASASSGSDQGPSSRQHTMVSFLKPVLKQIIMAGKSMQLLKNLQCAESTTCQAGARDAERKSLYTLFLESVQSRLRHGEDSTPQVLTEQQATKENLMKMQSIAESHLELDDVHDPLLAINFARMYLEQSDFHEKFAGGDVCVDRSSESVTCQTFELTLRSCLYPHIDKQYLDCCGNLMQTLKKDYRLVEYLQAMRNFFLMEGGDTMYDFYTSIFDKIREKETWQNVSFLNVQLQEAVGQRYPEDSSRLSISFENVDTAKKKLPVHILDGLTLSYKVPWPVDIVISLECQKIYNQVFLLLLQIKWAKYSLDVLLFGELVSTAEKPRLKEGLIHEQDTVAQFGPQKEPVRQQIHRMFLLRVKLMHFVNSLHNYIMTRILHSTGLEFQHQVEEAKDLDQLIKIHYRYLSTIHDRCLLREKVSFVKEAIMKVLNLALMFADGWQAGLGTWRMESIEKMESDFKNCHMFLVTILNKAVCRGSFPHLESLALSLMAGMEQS
UniProt A6NNZ2, whole entry, looked up: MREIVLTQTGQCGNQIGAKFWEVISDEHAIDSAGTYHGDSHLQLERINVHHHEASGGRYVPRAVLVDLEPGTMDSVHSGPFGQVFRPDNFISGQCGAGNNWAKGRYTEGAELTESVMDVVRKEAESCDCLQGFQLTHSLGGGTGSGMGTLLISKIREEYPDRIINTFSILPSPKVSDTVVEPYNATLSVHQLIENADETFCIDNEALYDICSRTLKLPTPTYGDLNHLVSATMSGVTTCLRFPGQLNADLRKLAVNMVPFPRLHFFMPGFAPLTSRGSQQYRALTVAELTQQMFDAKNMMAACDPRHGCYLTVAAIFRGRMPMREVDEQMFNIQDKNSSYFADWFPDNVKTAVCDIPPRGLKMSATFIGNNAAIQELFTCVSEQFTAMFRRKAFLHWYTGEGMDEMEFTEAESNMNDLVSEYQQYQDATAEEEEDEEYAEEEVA
UniProt Q9NNW7, whole entry, looked up: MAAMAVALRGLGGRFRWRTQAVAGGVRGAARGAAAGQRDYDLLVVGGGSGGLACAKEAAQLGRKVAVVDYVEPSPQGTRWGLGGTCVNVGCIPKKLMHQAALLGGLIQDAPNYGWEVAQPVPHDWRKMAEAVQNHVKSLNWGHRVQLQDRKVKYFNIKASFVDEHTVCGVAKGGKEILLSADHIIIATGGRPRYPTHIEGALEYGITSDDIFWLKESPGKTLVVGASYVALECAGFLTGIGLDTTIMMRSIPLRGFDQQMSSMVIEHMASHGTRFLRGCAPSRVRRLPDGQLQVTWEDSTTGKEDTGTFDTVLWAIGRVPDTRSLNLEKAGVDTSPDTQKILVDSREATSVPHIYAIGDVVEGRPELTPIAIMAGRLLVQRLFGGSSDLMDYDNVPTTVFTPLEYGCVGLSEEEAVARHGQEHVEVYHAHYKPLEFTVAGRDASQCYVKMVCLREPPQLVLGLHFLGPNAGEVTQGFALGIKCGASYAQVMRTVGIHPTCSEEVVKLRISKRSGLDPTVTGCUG
UniProt Q9C0H2: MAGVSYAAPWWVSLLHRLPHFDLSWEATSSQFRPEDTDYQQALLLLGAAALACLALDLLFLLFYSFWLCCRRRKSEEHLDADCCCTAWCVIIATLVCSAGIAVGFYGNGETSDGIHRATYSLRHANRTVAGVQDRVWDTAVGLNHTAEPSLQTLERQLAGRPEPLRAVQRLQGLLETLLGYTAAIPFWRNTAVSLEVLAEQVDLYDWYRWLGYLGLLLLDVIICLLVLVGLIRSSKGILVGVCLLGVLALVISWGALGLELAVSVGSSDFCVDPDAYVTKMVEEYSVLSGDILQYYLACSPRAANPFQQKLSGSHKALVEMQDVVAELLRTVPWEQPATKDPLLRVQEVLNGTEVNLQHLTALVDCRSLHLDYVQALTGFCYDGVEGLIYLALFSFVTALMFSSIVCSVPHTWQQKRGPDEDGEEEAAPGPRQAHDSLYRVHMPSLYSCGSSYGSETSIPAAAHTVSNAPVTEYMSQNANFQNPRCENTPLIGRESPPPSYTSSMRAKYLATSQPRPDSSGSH
UniProt O00124: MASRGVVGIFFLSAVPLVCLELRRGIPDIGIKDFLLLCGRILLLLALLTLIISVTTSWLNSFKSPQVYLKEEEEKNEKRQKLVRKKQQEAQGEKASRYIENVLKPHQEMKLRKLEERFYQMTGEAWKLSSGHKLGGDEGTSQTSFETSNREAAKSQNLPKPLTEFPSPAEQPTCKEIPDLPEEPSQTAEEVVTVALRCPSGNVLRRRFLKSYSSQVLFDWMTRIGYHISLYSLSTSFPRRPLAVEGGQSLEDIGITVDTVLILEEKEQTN
UniProt Q14157: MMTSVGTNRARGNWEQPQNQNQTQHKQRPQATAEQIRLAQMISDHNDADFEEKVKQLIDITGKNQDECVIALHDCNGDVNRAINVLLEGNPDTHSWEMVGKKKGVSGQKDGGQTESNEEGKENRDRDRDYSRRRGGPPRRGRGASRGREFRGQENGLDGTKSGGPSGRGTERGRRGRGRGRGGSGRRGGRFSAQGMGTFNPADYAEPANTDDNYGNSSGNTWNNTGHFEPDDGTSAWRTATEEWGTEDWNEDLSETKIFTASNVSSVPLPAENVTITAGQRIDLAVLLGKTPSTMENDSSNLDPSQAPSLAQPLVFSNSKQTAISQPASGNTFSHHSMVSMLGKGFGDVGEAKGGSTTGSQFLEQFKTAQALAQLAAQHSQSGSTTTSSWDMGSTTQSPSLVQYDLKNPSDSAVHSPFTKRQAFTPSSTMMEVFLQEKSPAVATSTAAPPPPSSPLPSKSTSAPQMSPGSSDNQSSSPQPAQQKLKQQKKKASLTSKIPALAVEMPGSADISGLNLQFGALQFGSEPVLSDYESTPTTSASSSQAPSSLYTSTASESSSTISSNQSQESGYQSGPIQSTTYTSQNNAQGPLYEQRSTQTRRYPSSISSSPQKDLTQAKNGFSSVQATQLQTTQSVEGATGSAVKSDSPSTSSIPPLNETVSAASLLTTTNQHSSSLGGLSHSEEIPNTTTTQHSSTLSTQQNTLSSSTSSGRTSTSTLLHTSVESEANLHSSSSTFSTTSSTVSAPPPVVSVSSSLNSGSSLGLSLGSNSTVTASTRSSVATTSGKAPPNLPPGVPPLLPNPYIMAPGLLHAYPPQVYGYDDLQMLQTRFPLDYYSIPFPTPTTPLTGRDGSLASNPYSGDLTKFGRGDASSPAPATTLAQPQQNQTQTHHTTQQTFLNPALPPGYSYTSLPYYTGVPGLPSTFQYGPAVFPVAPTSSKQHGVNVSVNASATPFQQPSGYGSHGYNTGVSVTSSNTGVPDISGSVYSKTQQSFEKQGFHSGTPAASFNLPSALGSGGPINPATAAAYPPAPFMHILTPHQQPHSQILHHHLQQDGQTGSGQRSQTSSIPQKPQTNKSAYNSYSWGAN
UBE2L5, A0A1B0GUS4, UniProt A0A1B0GUS4, whole entry, looked up: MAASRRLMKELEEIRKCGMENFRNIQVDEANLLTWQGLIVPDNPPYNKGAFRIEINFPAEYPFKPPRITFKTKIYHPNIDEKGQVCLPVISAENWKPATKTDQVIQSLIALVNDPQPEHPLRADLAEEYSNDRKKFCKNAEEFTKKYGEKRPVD
UniProt P41226: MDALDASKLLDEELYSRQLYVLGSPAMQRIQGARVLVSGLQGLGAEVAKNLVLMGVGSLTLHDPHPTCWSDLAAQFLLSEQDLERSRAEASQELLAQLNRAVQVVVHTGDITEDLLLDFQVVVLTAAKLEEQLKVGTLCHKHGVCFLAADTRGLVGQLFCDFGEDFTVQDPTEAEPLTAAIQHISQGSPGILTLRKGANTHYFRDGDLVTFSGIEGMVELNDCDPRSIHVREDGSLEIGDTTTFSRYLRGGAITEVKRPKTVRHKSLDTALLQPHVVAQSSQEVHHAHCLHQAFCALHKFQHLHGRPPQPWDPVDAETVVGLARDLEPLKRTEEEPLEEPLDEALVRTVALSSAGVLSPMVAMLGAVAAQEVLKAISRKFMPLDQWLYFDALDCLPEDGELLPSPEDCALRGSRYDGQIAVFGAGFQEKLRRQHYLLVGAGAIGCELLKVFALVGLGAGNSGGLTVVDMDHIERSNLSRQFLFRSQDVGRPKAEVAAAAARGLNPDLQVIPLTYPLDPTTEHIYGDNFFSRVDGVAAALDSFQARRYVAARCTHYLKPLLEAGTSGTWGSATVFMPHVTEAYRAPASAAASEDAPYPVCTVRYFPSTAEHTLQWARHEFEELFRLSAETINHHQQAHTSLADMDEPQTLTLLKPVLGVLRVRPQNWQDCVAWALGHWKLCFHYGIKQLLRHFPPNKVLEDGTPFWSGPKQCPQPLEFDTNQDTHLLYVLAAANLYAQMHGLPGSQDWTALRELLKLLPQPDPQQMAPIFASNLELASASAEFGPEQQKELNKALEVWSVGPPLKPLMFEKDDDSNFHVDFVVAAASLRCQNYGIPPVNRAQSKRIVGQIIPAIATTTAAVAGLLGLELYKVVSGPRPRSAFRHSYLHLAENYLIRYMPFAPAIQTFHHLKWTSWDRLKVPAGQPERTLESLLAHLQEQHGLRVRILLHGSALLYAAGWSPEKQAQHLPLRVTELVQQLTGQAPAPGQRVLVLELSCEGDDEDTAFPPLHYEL
UniProt Q8WVN8: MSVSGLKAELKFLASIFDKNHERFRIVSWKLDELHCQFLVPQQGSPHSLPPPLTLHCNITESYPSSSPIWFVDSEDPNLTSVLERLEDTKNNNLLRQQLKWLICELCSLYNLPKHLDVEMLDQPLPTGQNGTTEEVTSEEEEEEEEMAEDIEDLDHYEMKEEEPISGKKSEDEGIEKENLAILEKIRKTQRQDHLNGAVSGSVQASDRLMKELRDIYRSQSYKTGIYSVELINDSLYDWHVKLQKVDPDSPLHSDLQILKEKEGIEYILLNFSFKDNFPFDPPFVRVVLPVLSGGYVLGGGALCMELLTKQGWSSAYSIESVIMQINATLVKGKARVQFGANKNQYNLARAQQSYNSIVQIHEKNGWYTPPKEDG

[2] = compound: NCC(=O)Nc1ccc(-n2nc(C(F)(F)F)cc2-c2ccc3c(ccc4ccccc43)c2)cc1
Procedure, shortened: as §1

entospletinib = compound: c1cn2cc(-c3ccc4cn[nH]c4c3)nc(Nc3ccc(N4CCOCC4)cc3)c2n1 [entospletinib]
Procedure, shortened: as §1

vorinostat = compound: O=C(CCCCCCC(=O)Nc1ccccc1)NO [vorinostat]
Procedure, shortened: as §1

silmitasertib = compound: O=C(O)c1ccc2c(c1)nc(Nc1cccc(Cl)c1)c1ccncc12 [silmitasertib]
Procedure, shortened: as §1

Target | log2 fold change [1] | log2 fold change [2] | log2 fold change (entospletinib) | log2 fold change (vorinostat) | log2 fold change (silmitasertib)
TVP23C (UniProt Q96ET8) | inactive: -0.083 |  |  |  | 
TUBGCP5 (UniProt Q96RT8) | inactive: 0.042 | inactive: -0.029 | inactive: -0.105 |  | 
TUBB8B (UniProt A6NNZ2) |  | inactive: 0.117 | inactive: 0.026 |  | 
TXNRD2 isoform 3 (UniProt Q9NNW7) |  |  |  | active: -0.94 | inactive: -0.194
TTYH3 isoform 4 (UniProt Q9C0H2) |  |  |  | inactive: 0.256 | inactive: -0.101
UBXN8 (UniProt O00124) | inactive: -0.084 |  | inactive: -0.176 | inactive: -0.124 | inactive: -0.001
UBAP2L isoform 1 (UniProt Q14157) | inactive: 0.088 |  |  |  | 
TXNDC11 (UniProt Q6PKC3) | inactive: 0.018 |  | inactive: -0.042 | inactive: 0.138 | inactive: -0.091
U2AF1L5 (UniProt P0DN76) |  |  | inactive: 0.016 | inactive: -0.363 | inactive: -0.069
UBE2L5, A0A1B0GUS4 |  |  |  | inactive: 0.178 | inactive: 0.215
U2AF2 (UniProt K7ELP8) |  | inactive: 0.006 | inactive: 0.072 |  | 
UBE2I (UniProt H3BQQ9) | inactive: 0.071 | inactive: 0.013 |  |  | 
TYK2 (UniProt P29597) | inactive: -0.027 |  | inactive: -0.137 | inactive: 0.219 | inactive: 0.166
UBAP2, A0A0D9SFI5 | inactive: -0.094 |  |  |  | 
UBA7 (UniProt P41226) | inactive: 0.06 |  |  | inactive: 0.088 | inactive: -0.025
UBA52 (UniProt P62987) | inactive: 0.02 |  | inactive: 0.083 | inactive: 0.088 | inactive: 0.109
UBQLN1 (UniProt H0YEZ9) |  |  |  | inactive: -0.003 | inactive: 0.103
UBE2Q2 (UniProt Q8WVN8) |  | inactive: 0.087 | inactive: -0.02 | inactive: -0.143 | inactive: 0.172

Record cards, as listed above.
UBA52 (UniProt P62987) as listed: log2 fold change [1]: inactive: 0.02; log2 fold change (entospletinib): inactive: 0.083; log2 fold change (vorinostat): inactive: 0.088; log2 fold change (silmitasertib): inactive: 0.109
UBE2L5, A0A1B0GUS4 as listed: log2 fold change (vorinostat): inactive: 0.178; log2 fold change (silmitasertib): inactive: 0.215

Reference: the supplement of paper PMC10849652
